# Values of other authors in patent US6849722B2, “Polymerized oligopeptide-surfactant chiral micelles” (Board of Supervisors of Louisiana State University and …, priority 1998, dated 2005).
# Some of these results come from one statement about several compounds together.
# Details: cited from earlier work
smiles,measurement,value
"C=CCc1ccccc1OCC(O)CNC(C)C (stereo not shown) [ALP, alprenolol]",pKa value of the ionizable nitrogen,9.2-9.6
